# Experimental data taken from the supplement of paper PMC8728848.
# The list shows a part of the results.
# B1: Vd7LysM (Verticillium dahliae) (protein)
# chain: RRGPEPKYPPAAGTSSYCSYWVDYEGDKSCSRVLEDNVVVLKDFARWNPTVGADCSGIKAGNSYCVEAFGEPEPIEVTTTTRAATTTTQPTATTTTFANGIATPQPTQSGMVTNCNKFHWIAEGVSCSQVISFQKITLADFVKWNPSVKSDCSGMWAGVNVCVGVVGSSTDTAKPTTTAPSNGVVTPQPTQPSMVTNCNKFHWIAKGVTCQQVISYQKISLADFVKWNPSVLSDCSGMWAEVQVCVGVIGSTPTTLATTTTTAGNGVSTPLPTQPGMVTNCAKFHWVAKGVTCNQIYSFQKITLEQFVSYNPTVKSDCSGMQAEVQVCVGLIAGTTPTTTRPPTTTAPGNGVSTPQPTQPGMVTNCAKFHWVAKGVTCNQIYSFQKITLEQFVSFNPTVKSDCTGMQAEVNVCVGLIGGNPTPTQTGNGIATPTPIQPGMVSNCKKFHWIAQGVTCQQVISFQKITLADFVKWNTGVGSDCRTMWAETNVCVGV
# How the values were obtained:
# Assay in all cases: glycan array binding signal (z-score within array); higher = stronger binding
# Conditions in all cases: glycan notation: IUPAC condensed, linker removed
# [1] = target: Fuc(a1-2)[Gal(a1-3)]Gal(b1-4)GlcNAc(b1-2)Man(a1-3)[Fuc(a1-2)[Gal(a1-3)]Gal(b1-4)GlcNAc(b1-2)Man(a1-6)]Man(b1-4)GlcNAc(b1-4)[Fuc(a1-6)]GlcNAc
# Outline: (§1)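 Glycan array binding is given as a within-array Z-score, which can be read as non-binding when negative. The arrays, 3228 of them, came from the Consortium for Functional Glycomics database and were retained only where the protein sequence was available. Z-scores were averaged across arrays of the same protein sequence at different concentrations or buffers and across linkers.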
# [2] = target: Fuc(a1-2)[Gal(a1-3)]Gal(b1-4)GlcNAc(b1-3)GalNAc
# Outline: as §1
# [3] = target: Fuc(a1-2)[Gal(a1-3)]Gal(b1-4)GlcNAc(b1-3)[Fuc(a1-2)[Gal(a1-3)]Gal(b1-4)GlcNAc(b1-6)]GalNAc
# Outline: as §1
# [4] = target: Fuc(a1-2)[Gal(a1-3)]Gal(b1-4)GlcNAc(b1-6)GalNAc
# Outline: as §1
# [5] = target: Fuc(a1-2)[Gal(a1-3)]Gal(b1-4)[Fuc(a1-3)]Glc
# Outline: as §1
# [6] = target: Fuc(a1-2)[Gal(a1-3)]Gal(b1-4)[Fuc(a1-3)]GlcNAc
# Outline: as §1
# [7] = target: Fuc(a1-2)[Gal(a1-3)]Gal(b1-4)[Fuc(a1-3)]GlcNAc(b1-3)GalNAc
# Outline: as §1
# [8] = target: Fuc(a1-2)[Gal(a1-4)]Gal(b1-4)GlcNAc
# Outline: as §1
# [9] = target: Fuc(a1-2)[GalNAc(a1-3)]Gal
# Outline: as §1
# [10] = target: Fuc(a1-2)[GalNAc(a1-3)]Gal(b1-3)GalNAc(a1-3)[Fuc(a1-2)]Gal(b1-4)GlcNAc
# Outline: as §1
# [11] = target: Fuc(a1-2)[GalNAc(a1-3)]Gal(b1-3)GalNAc(b1-3)Gal(a1-4)Gal(b1-4)Glc
# Outline: as §1
# [12] = target: Fuc(a1-2)[GalNAc(a1-3)]Gal(b1-3)GlcNAc
# Outline: as §1
# [13] = target: Fuc(a1-2)[GalNAc(a1-3)]Gal(b1-3)GlcNAc(b1-2)Man(a1-3)[Fuc(a1-2)[GalNAc(a1-3)]Gal(b1-3)GlcNAc(b1-2)Man(a1-6)]Man(b1-4)GlcNAc(b1-4)GlcNAc
# Outline: as §1
# [14] = target: Fuc(a1-2)[GalNAc(a1-3)]Gal(b1-3)GlcNAc(b1-2)Man(a1-3)[Fuc(a1-2)[GalNAc(a1-3)]Gal(b1-3)GlcNAc(b1-2)Man(a1-6)]Man(b1-4)GlcNAc(b1-4)[Fuc(a1-6)]GlcNAc
# Outline: as §1
# [15] = target: Fuc(a1-2)[GalNAc(a1-3)]Gal(b1-3)GlcNAc(b1-3)GalNAc
# Outline: as §1
# [16] = target: Fuc(a1-2)[GalNAc(a1-3)]Gal(b1-3)GlcNAc(b1-6)GalNAc
# Outline: as §1
# [17] = target: Fuc(a1-2)[GalNAc(a1-3)]Gal(b1-4)Glc
# Outline: as §1
# [18] = target: Fuc(a1-2)[GalNAc(a1-3)]Gal(b1-4)GlcNAc
# Outline: as §1
# [19] = target: Fuc(a1-2)[GalNAc(a1-3)]Gal(b1-4)GlcNAc(b1-2)Man
# Outline: as §1
# [20] = target: Fuc(a1-2)[GalNAc(a1-3)]Gal(b1-4)GlcNAc(b1-2)Man(a1-3)[Fuc(a1-2)[GalNAc(a1-3)]Gal(b1-4)GlcNAc(b1-2)Man(a1-6)]Man(b1-4)GlcNAc(b1-4)GlcNAc
# Outline: as §1
# [21] = target: Fuc(a1-2)[GalNAc(a1-3)]Gal(b1-4)GlcNAc(b1-2)Man(a1-3)[Fuc(a1-2)[GalNAc(a1-3)]Gal(b1-4)GlcNAc(b1-2)Man(a1-6)]Man(b1-4)GlcNAc(b1-4)[Fuc(a1-6)]GlcNAc
# Outline: as §1
# [22] = target: Fuc(a1-2)[GalNAc(a1-3)]Gal(b1-4)GlcNAc(b1-3)Gal(b1-4)GlcNAc
# Outline: as §1
# [23] = target: Fuc(a1-2)[GalNAc(a1-3)]Gal(b1-4)GlcNAc(b1-3)Gal(b1-4)GlcNAc(b1-3)Gal(b1-4)GlcNAc
# Outline: as §1
# [24] = target: Fuc(a1-2)[GalNAc(a1-3)]Gal(b1-4)GlcNAc(b1-3)GalNAc
# Outline: as §1
# [25] = target: Fuc(a1-2)[GalNAc(a1-3)]Gal(b1-4)GlcNAc(b1-3)[Fuc(a1-2)[GalNAc(a1-3)]Gal(b1-4)GlcNAc(b1-6)]GalNAc
# Outline: as §1
# [26] = target: Fuc(a1-2)[GalNAc(a1-3)]Gal(b1-4)GlcNAc(b1-6)GalNAc
# Outline: as §1
# [27] = target: Fuc(a1-2)[GalNAc(a1-3)]Gal(b1-4)[Fuc(a1-3)]GlcNAc
# Outline: as §1
# [28] = target: Fuc(a1-2)[GalNAc(a1-3)]Gal(b1-4)[Fuc(a1-3)]GlcNAc(b1-3)GalNAc
# Outline: as §1
# [29] = target: Fuc(a1-2)[GalNAc(a1-4)]Gal(b1-4)GlcNAc
# Outline: as §1
# [30] = target: Fuc(a1-2)[GalNAc(b1-3)]Gal
# Outline: as §1
binder,measurement,setting,value
B1,glycan array binding signal (z-score),[1],-1.3
same,glycan array binding signal (z-score),[2],0.726
same,glycan array binding signal (z-score),[3],-0.425
same,glycan array binding signal (z-score),[4],0.845
same,glycan array binding signal (z-score),[5],0.734
same,glycan array binding signal (z-score),[6],0.347
same,glycan array binding signal (z-score),[7],0.585
same,glycan array binding signal (z-score),[8],-0.292
same,glycan array binding signal (z-score),[9],0.378
same,glycan array binding signal (z-score),[10],-0.428
same,glycan array binding signal (z-score),[11],-0.537
same,glycan array binding signal (z-score),[12],-1.28
same,glycan array binding signal (z-score),[13],1.28
same,glycan array binding signal (z-score),[14],-0.558
same,glycan array binding signal (z-score),[15],-0.583
same,glycan array binding signal (z-score),[16],-0.331
same,glycan array binding signal (z-score),[17],-0.37
same,glycan array binding signal (z-score),[18],0.25
same,glycan array binding signal (z-score),[19],0.109
same,glycan array binding signal (z-score),[20],0.669
same,glycan array binding signal (z-score),[21],-0.531
same,glycan array binding signal (z-score),[22],1.94
same,glycan array binding signal (z-score),[23],1.23
same,glycan array binding signal (z-score),[24],0.906
same,glycan array binding signal (z-score),[25],-1.58
same,glycan array binding signal (z-score),[26],-0.162
same,glycan array binding signal (z-score),[27],0.06
same,glycan array binding signal (z-score),[28],-0.854
same,glycan array binding signal (z-score),[29],-0.525
same,glycan array binding signal (z-score),[30],0.38

# Copied from the results shown (2 entries):
binder,measurement,setting,value
B1,glycan array binding signal (z-score),[21],-0.531
same,glycan array binding signal (z-score),[22],1.94
